The values below come from article PMC5383037.

By UniProt entry, the sequences of proteins in these tests, tags left out. Where a name states a change or a piece, a line headed by the entry shows the natural chain unless it says otherwise.
UniProt P62491: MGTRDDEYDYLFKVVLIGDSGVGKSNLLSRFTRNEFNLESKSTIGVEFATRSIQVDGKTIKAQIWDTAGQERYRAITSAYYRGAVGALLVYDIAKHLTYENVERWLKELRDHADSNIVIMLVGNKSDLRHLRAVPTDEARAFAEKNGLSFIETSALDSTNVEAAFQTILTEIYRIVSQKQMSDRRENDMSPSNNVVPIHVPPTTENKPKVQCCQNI

The target in experiment [1] is GST-Rab11A-Q70L (UniProt P62491). Nature of the experiment: pull-down; GST fusion proteins coupled to glutathione-Sepharose 4B beads (10 uL wet volume) incubated with 100 uL COS-7 lysate containing the T7-tagged protein; lysis buffer 50 mM HEPES-KOH pH 7.2, 150 mM NaCl, 1 mM MgCl2, 1% Triton X-100; washed 3 times with the same buffer at 0.2% Triton X-100; anti-T7 immunoblot; only the target purified. A general note: Immunoblotting shows a protein as a band on a membrane.

Experiment [2] deals with GST-Rab11A-S25N (UniProt P62491). Described as above.

Results are given in words; binding and its absence hold for the method and conditions named. In cells and extracts the contact can be indirect. Some entries that bind do so weakly or less than the wild type.

B1: T7-TBC1D12-N (domain or fragment, UniProt O60347 1-277)
chain: MVGPEDAGACSGRNPKLLPVPAPDPVGQDRKVIRATGGFGGGVGAVEPPEEADEEEEADEEEETPPRQLLQRYLAAAGEQLEPGLCYCPLPAGQAGAPPPSAAPRSDACLLGSGSKHRGAEVADGRAPRHEGMTNGDSGFLPGRDCRDLEEARGLARAGGRESRRRRPYGRLRLEGPGDEDADGAGSPSDWASPLEDPLRSCCLVAADAQEPEGAGSDSGDSPASSCSSSEDSEQRGVGAGGPEEGAPPATSAERTNGGAEPRLGFSDIHFNSRNTF
With B1, the binding result in experiment [1] is recorded as “no binding”.

B2: T7-TBC1D12 (protein, UniProt O60347 1-775)
chain: MVGPEDAGACSGRNPKLLPVPAPDPVGQDRKVIRATGGFGGGVGAVEPPEEADEEEEADEEEETPPRQLLQRYLAAAGEQLEPGLCYCPLPAGQAGAPPPSAAPRSDACLLGSGSKHRGAEVADGRAPRHEGMTNGDSGFLPGRDCRDLEEARGLARAGGRESRRRRPYGRLRLEGPGDEDADGAGSPSDWASPLEDPLRSCCLVAADAQEPEGAGSDSGDSPASSCSSSEDSEQRGVGAGGPEEGAPPATSAERTNGGAEPRLGFSDIHFNSRNTFQVSRGQSARDHLPPAGPPVPLPAAEQGPAGASARARRSGGFADFFTRNLFPKRTKELKSVVHSAPGWKLFGKVPPRENLQKTSKIIQQEYEARTGRTCKPPPQSSRRKNFEFEPLSTTALILEDRPSNLPAKSVEEALRHRQEYDEMVAEAKKREIKEAHKRKRIMKERFKQEENIASAMVIWINEILPNWEVMRSTRRVRELWWQGLPPSVRGKVWSLAVGNELNITPELYEIFLSRAKERWKSFSETSSENDTEGVSVADREASLELIKLDISRTFPSLYIFQKGGPYHDVLHSILGAYTCYRPDVGYVQGMSFIAAVLILNLEEADAFIAFANLLNKPCQLAFFRVDHSMMLKYFATFEVFFEENLSKLFLHFKSYSLTPDIYLIDWIFTLYSKSLPLDLACRVWDVFCRDGEEFLFRTGLGILRLYEDILLQMDFIHIAQFLTKLPEDITSEKLFSCIAAIQMQNSTKKWTQVFASVMKDIKEGDKNSSPALKS
With B2, the binding result is listed as “binds” in experiment [1] and “no binding” in experiment [2].

B3: T7-TBC1D12-M (domain or fragment, UniProt O60347 278-490)
chain: QVSRGQSARDHLPPAGPPVPLPAAEQGPAGASARARRSGGFADFFTRNLFPKRTKELKSVVHSAPGWKLFGKVPPRENLQKTSKIIQQEYEARTGRTCKPPPQSSRRKNFEFEPLSTTALILEDRPSNLPAKSVEEALRHRQEYDEMVAEAKKREIKEAHKRKRIMKERFKQEENIASAMVIWINEILPNWEVMRSTRRVRELWWQGLPPSVR
For the molecule B3, the binding result in experiment [1] is given as “binds”.
